These are yes or no findings as the source states them, for the method shown. In cells and extracts the contact can be indirect. Some results given as binding are weak or reduced against the parent protein; the word gives no strength.
Molecular target: phospho-histone deacetylase 3 (human (endogenous in LY-10)) (UniProt O15379)
Experiment: co-IP; LY-10 cell lysate; immunoprecipitates captured with Sepharose beads, washed four times with RIPA buffer, analyzed by immunoblotting; which protein was precipitated is not told

Sequences of proteins named here, by UniProt entry; tags and fusion partners are left off.
UniProt O15379: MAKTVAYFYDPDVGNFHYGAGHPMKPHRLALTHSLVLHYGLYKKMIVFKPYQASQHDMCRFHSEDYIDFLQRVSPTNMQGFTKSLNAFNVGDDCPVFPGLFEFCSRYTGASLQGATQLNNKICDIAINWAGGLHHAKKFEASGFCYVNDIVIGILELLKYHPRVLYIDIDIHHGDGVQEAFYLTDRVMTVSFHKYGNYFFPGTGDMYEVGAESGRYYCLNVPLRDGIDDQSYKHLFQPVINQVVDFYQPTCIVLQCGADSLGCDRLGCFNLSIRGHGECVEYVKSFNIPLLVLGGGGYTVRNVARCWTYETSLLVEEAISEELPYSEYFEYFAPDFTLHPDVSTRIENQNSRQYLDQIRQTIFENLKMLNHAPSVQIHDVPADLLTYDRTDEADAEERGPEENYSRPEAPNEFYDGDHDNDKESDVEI

B1: Heme oxygenase-1 (enzyme, UniProt P09601 1-288)
chain: MERPQPDSMPQDLSEALKEATKEVHTQAENAEFMRNFQKGQVTRDGFKLVMASLYHIYVALEEEIERNKESPVFAPVYFPEELHRKAALEQDLAFWYGPRWQEVIPYTPAMQRYVKRLHEVGRTEPELLVAHAYTRYLGDLSGGQVLKKIAQKALDLPSSGEGLAFFTFPNIASATKFKQLYRSRMNSLEMTPAVRQRVIEEAKTAFLLNIQLFEELQELLTHDTKDQSPSRAPGLRQRASNKVQDSAPVETPRGKPPLNTRSQAPLLRWVLTLSFLVATVAVGLYAM
binding: binds

Source: publication PMC5667976
